The source of these data is paper PMC8745574.

In assay [1] the target is T1, c-myc-tagged POT1a, in vitro translated (Arabidopsis thaliana) (UniProt Q56Y52).
T1 sequence: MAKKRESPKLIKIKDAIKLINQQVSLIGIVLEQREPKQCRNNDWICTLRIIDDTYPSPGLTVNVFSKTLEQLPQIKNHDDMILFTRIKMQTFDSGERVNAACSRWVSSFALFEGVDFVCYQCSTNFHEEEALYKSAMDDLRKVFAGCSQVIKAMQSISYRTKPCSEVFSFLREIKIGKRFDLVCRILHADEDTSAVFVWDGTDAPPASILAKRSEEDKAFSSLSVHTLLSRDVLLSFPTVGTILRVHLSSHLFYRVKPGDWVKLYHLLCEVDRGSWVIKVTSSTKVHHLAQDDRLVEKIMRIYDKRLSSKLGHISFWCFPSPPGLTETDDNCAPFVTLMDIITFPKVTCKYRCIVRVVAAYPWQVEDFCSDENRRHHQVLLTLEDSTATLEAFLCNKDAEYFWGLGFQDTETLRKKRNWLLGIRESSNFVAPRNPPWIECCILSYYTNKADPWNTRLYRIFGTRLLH
Put plainly: co-IP; both proteins translated in vitro in rabbit reticulocyte lysate; 35S-Met labelled prey mixed with c-myc- or HA-tagged bait in 25 mM HEPES pH 7.5, 150 mM KCl, 5 mM MgCl2, 0.1% Nonidet P-40; anti-c-myc or anti-HA magnetic beads.

The target of assay [2] is T2, high-mobility-group B4 (HMGB4) protein (Arabidopsis thaliana) (UniProt Q42344).
T2 sequence: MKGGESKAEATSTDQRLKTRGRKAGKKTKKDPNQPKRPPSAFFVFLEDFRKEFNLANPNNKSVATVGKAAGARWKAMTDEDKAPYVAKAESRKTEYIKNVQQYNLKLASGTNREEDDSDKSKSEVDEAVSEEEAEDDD
Put plainly: two-hybrid; Matchmaker GAL4 system, pGADT7-DEST/pGBKT7-DEST, S. cerevisiae PJ69-4α, 30 °C; growth on -LWH plates (with increasing 3-aminotriazol) and -LWHAde plates.

Assay [3] addresses T3, AtTERT RID construct (1-271 aa) (Arabidopsis thaliana) (UniProt Q9SPU7).
T3 sequence: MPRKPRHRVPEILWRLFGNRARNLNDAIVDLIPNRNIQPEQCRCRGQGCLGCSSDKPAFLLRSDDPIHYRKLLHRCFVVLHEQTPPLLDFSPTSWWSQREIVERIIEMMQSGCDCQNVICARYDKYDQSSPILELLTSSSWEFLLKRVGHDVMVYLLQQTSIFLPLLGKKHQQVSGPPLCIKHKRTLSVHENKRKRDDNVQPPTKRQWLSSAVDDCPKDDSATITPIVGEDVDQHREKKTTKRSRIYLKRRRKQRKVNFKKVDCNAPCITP
The description is as above.

The target of assay [4] is T4, AtTERT TEN construct (1-233 aa) (Arabidopsis thaliana) (UniProt Q9SPU7).
T4 sequence: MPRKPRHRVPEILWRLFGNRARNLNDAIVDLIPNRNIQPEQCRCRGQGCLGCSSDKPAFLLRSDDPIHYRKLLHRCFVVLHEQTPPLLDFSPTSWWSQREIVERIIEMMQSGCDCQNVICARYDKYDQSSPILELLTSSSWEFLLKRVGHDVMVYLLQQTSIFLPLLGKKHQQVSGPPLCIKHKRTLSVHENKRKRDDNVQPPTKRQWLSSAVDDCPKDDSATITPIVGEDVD
The assay is described as above.

In assay [5] the target is T5, POT1a (Arabidopsis thaliana) (UniProt Q56Y52).
T5 sequence: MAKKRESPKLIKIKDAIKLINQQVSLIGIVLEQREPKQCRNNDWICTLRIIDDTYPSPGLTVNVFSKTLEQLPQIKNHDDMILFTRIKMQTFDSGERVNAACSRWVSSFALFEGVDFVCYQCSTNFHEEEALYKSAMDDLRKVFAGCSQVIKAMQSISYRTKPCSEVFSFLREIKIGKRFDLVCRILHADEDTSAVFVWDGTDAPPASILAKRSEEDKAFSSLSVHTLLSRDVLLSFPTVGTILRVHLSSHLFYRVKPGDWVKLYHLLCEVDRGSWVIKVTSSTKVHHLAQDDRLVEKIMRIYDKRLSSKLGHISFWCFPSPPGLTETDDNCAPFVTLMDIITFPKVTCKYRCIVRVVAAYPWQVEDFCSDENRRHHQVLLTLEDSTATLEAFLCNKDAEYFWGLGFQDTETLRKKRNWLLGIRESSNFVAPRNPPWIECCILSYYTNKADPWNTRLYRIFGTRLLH
Described as above.

These are yes or no findings as the source states them, for the method shown. For some assays here: Binding seen in cells or lysates may run through a third protein. Some entries that bind do so weakly or less than the wild type. For some assays here: Sequences can lack the tags named with a protein.

B1: MCM7, full length, radioactively labelled, in vitro translated (protein, UniProt P43299 1-716)
chain: MKDHDFDGDKGLAKGFLENFADANGRSKYMEILQEVSNRKIRAIQVDLDDLFNYKDESEEFLGRLTENTRRYVSIFSAAVDELLPEPTEAFPDDDHDILMTQRADDGTDNPDVSDPHQQIPSEIKRYYEVYFKAPSKGRPSTIREVKASHIGQLVRISGIVTRCSDVKPLMAVAVYTCEDCGHEIYQEVTSRVFMPLFKCPSSRCRLNSKAGNPILQLRASKFLKFQEAKMQELAEHVPKGHIPRSMTVHLRGELTRKVSPGDVVEFSGIFLPIPYTGFKALRAGLVADTYLEATSVTHFKKKYEEYEFQKDEEEQIARLAEDGDIYNKLSRSLAPEIYGHEDIKKALLLLLVGAPHRQLKDGMKIRGDVHICLMGDPGVAKSQLLKHIINVAPRGVYTTGKGSSGVGLTAAVMRDQVTNEMVLEGGALVLADMGICAIDEFDKMDESDRTAIHEVMEQQTVSIAKAGITTSLNARTAVLAAANPAWGRYDLRRTPAENINLPPALLSRFDLLWLILDRADMDSDLELAKHVLHVHQTEESPALGFEPLEPNILRAYISAARRLSPYVPAELEEYIATAYSSIRQEEAKSNTPHSYTTVRTLLSILRISAALARLRFSESVAQSDVDEALRLMQMSKISLYADDRQKAGLDAISDTYSIIRDEAARSKKTHVSYANALNWISRKGYSEAQLKECLEEYAALNVWQIDPHTFDIRFI
modifications: 35S-Met labelled
Regarding B1, the binding entry in assay [1] was “binds”.

B2: actin-related protein 4 (ARP4) (protein, UniProt Q84M92 1-441)
chain: MYGGDEVSAIVVDLGSHTCKAGYAGEDAPKAVFPSVIGAVDGVEAMDVDVDSTKTNSNSEDSKTESEKEKSKRKLYVGSQAMSYRRDHMEVLSPIKDGIVSDWDLVDNIWEHAFKSCLMIDPTEHPMLLAEPPLNTQQQREKAAELMFEKYKVPALFMAKNPVLTSFATGRATSLVVDCGGGSTTISPVHDGYVLQKAVVSSPLGGEFLTDCLLKSLESKGIKIRPRYSFKRKEVRAGEFQVEDVDIPDTTESYKLFCQRMIVGDIKDSICRVPDTPYDDKSYSNIPTTSYELPDGQTLEIGADRFKVPDVMFNPSIVQTIPGMEKYAEMIPSVRGLPHMVMESINKCDVDIRRELYSSILLAGGTSSMQQLKERLEKDLIEESPHSARVKVLASGNTTERRFSVWIGGSILASLGSFQQMWFSKSEYEEHGASYIQRKCP
B2: the binding entry is “no binding” in assay [2], “binds weakly” in assay [3], “binds” in assay [4] and “binds weakly” in assay [5].
